Assay results from PubChem BioAssay AID624297 (National Center for Advancing Translational Sciences (NCATS), 2012).
The whole screen tested about 340,000 compounds, of which about 6,200 (1.8%) were called active. This list was built around the results that the source calls inconclusive (neither active nor inactive); the mix of calls is not that of the screen. The call rests on the fitted dose curve; in most records, active means well fitted activation curve with a large enough effect; inconclusive means small, poorly fitted or top-dose-only effect; inactive means no such curve, though single readings can be large or run the other way. A potency beside an inconclusive call is a rough fit, not a confirmed value.
Potency means the concentration at half of the fitted maximal effect.

Experiment: A quantitative high throughput screen for small molecules that induce DNA re-replication in SW480 colon adenocarcinoma cells. Further: nearly all actives have a fitted effect of over 55% in size. On re-replication activation: % of control where 0% means no effect.
Conditions: Hoechst DNA content imaging, 48 h; re-replication activation: at 46.1 µM (top of the series)
Summary of the method: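 Image-based read-out: total Hoechst fluorescence of nuclei (405 nm excitation, 500-530 nm emission), with hits raising the fraction of high-intensity nuclei. SW480 colon cells incubated 48 hr with compounds at 37 C.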
For `CCOc1ccccc1NC(=S)NCCCn1ccnc1`, the Potency was inconclusive: 18.4 µM [activator, single point].
In the case of `CC(CNC(=O)c1cc(COc2c(F)cccc2F)on1)c1ccccc1` (stereo not given), the Potency is reported as inconclusive: 20.6 µM [activator, partial curve, poor fit].
With `CCCC(=O)Nc1ccc(C(=O)/C=C/c2ccc(SC)cc2)cc1` the Potency was inconclusive: 29.1 µM [activator, single point].
With `COc1ccc(CNC(=O)C/C(C)=N/NC(=O)c2ccc(OC)cc2OC)cc1` the “re-replication activation” value was inactive: 0.523%.
In the case of `COc1ccc(OC)c(NC(=S)NCc2cccs2)c1`, the “re-replication activation” value is reported as inactive: -3.37%.
With `N#Cc1ccsc1NC(=O)CCS(=O)(=O)c1ccccc1` the Potency was inconclusive: 29.1 µM [activator, single point].
For `Cc1cccn2c(=O)c3cc(S(=O)(=O)c4ccccc4)c(=N)n(Cc4ccco4)c3nc12`, the Potency was inconclusive: 29.1 µM [activator, single point].
For `COc1ccccc1NC(=O)C(C)OC(=O)C1CCN(S(=O)(=O)c2ccccc2C(F)(F)F)CC1` (stereo not given), the Potency was inconclusive: 29.1 µM [activator, single point].
For `CC(=O)Nc1ccc(NS(=O)(=O)c2c(Cl)cccc2Cl)cc1`, the Potency was inconclusive: 6.51 µM [activator, partial curve, poor fit].
In the case of `O=c1[nH][nH]c(-c2ccccc2O)c1C(C[N+](=O)[O-])c1ccccc1` (stereo not given), the Potency is reported as inconclusive: 18.4 µM [activator, single point].
With `CN(C(=O)/C=C/c1ccccc1)C1CCCCC1` the “re-replication activation” value was inactive: -19.9%.
With `O=C(CCN1C(=O)/C(=C/c2ccc(Cl)cc2)SC1=S)NC1C=CS(=O)(=O)C1` (stereo not given) the re-replication activation was inconclusive: 13% [activator].
In the case of `Cc1cc(=O)[nH]c(-n2nc(C)c(Oc3ccccc3O)c2C)n1`, the “re-replication activation” value is reported as inactive: -2.82%.
In the case of `COc1ccccc1OC(C)C(=O)Nc1nc(-c2ccc(S(=O)(=O)N3CCOCC3)cc2)cs1` (stereo not given), the “re-replication activation” value is reported as inactive: 6.81%.
With `Cc1ccc(NC(=O)c2cc(S(=O)(=O)Nc3ccc(C)cc3)cs2)cc1` the Potency was inconclusive: 14.6 µM [activator, single point].
With `COc1ccc(S(=O)(=O)NN(C)c2nc(C(F)(F)F)nc3ccccc23)cc1` the Potency was inconclusive: 29.1 µM [activator, single point].
In the case of `COc1cccc(N2CCN(C(=O)c3ccc(CS(=O)c4ccc(Cl)cc4)o3)CC2)c1` (stereo not given), the Potency is reported as inconclusive: 0.184 µM [activator, full curve, poor fit].
With `Cc1c(Cc2ccccc2)c(=O)n2c([nH]c3ccccc32)c1C#N` the “re-replication activation” value was inactive: -16.1%.
With `CCn1c(SCC(N)=O)nc2sc3c(c2c1=O)CCN(C)C3` the “re-replication activation” value was inactive: -3.95%.
For `COc1ccccc1NC(=O)Nc1nc(CC(=O)Nc2ccccc2F)cs1`, the Potency was inconclusive: 0.92 µM [activator, partial curve, poor fit].
